Measured values reported in patent publication US20170189504A1, “NOVEL PEPTIDES AND COMBINATION OF PEPTIDES FOR USE IN IMMUNOTHERAPY AGAINST VARIOUS CANCERS” (immatics biotechnologies GmbH, priority 2015, published 2017).

Test system: HLA-A*02
Assay: Identification and relative LC-MS quantitation of HLA-A*02-presented tumor-associated peptides on tissue samples (presentation profiles, Tables 13A, 13B, 15, FIG. 1)
Set-up: species or system human; key to Presentation score NHL / Presentation score CLL / Presentation score BRCA / Presentation score AML / Presentation score GB / Presentation score NSCLC / Presentation score GBC_CCC / Presentation score UEC / Presentation score MEL / Presentation score OSCAR / Presentation score GC / Presentation score UBC / Presentation score OC / Presentation score RCC / Presentation score CRC / Presentation score PCA / Presentation score HCC / Presentation score PC / Presentation score SCLC: specifically presented on tumors (++++); very highly over-presented on tumors compared to a panel of normal tissues (+++); highly over-presented on tumors compared to a panel of normal tissues (++); over-presented on tumors compared to a panel of normal tissues (+)
Settings: for Presentation score GB: glioblastoma (N = 41) vs panel of normal tissues (N = 262); for Presentation score NSCLC: non-small cell lung cancer (N = 90) vs panel of normal tissues (N = 262); for Presentation score OC: ovarian cancer (N = 20) vs panel of normal tissues (N = 262); for Peptide Presentation on cancer entities: HLA-A*02-binding tumor-associated peptides; for Presentation score NHL: non-Hodgkin lymphoma (N = 18) vs panel of normal tissues (N = 262); for Presentation score UBC: urinary bladder cancer (N = 16) vs panel of normal tissues (N = 262); for Presentation score AML: acute myeloid leukemia (N = 18) vs panel of normal tissues (N = 262); for Presentation score CLL: chronic lymphocytic leukemia (N = 17) vs panel of normal tissues (N = 262); for Presentation score OSCAR: esophageal cancer, including cancer of the gastric-esophageal junction (N = 17) vs panel of normal tissues (N = 262); for Presentation score MEL: melanoma (N = 7) vs panel of normal tissues (N = 262); for Presentation score CRC: colorectal cancer (N = 28) vs panel of normal tissues (N = 262); for Presentation score GBC_CCC: gallbladder adenocarcinoma and cholangiocarcinoma (N = 6) vs panel of normal tissues (N = 262); for Presentation score UEC: uterine cancer (N = 15) vs panel of normal tissues (N = 262); for Presentation score RCC: renal cell carcinoma (N = 20) vs panel of normal tissues (N = 262); for Presentation score BRCA: breast cancer (N = 17) vs panel of normal tissues (N = 262); for Presentation score GC: gastric cancer (N = 29) vs panel of normal tissues (N = 262); for Presentation score SCLC: small cell lung cancer (N = 19) vs panel of normal tissues (N = 262)
[1] = Table 13A, cancer entities on which the peptide was found presented
[2] = Table 13B, presentation on additional cancer entities

Substance	Presentation score NSCLC (HLA-A*02 peptides)	Presentation score OC (HLA-A*02 peptides)	Peptide Presentation on cancer entities [1]	Peptide Presentation on cancer entities [2]	Presentation score AML (HLA-A*02 peptides)	other results
1 (LLYPEPWSV; listed as Homo sapiens) [compound 1]	++++	++++	GB, NSCLC, OC	SCLC, UEC, HNSCC		Presentation score GB (HLA-A*02 peptides): ++++
3 (KLEENGDLYL; listed as Homo sapiens) [compound 3]			NSCLC, OC, SCLC, UBC, BRCA, GBC_CCC, MEL, NHL	HCC, UEC, AML, HNSCC		Presentation score NHL (HLA-A*02 peptides): +; Presentation score UBC (HLA-A*02 peptides): +++
4 (KLMPGTYTL; listed as Homo sapiens) [compound 4]			NSCLC, OC, UEC, AML, NHL	MEL, HNSCC		
5 (GIVAHIQEV; listed as Homo sapiens) [compound 5]		+	GC, NSCLC, PCA, CLL, OSCAR, OC, CRC, AML, NHL	UEC, MEL	++	Presentation score CLL (HLA-A*02 peptides): +
6 (ALFDSLRHV; listed as Homo sapiens) [compound 6]						Presentation score GB (HLA-A*02 peptides): ++++
7 (ILDHEVPSL; listed as Homo sapiens) [compound 7]				HNSCC	++	Presentation score CLL (HLA-A*02 peptides): +; Presentation score OSCAR (HLA-A*02 peptides): +++; Presentation score MEL (HLA-A*02 peptides): +
9 (FLVDGSYSI; listed as Homo sapiens) [compound 9]	++++		NSCLC, OSCAR, GBC_CCC, CRC			Presentation score CRC (HLA-A*02 peptides): ++++; Presentation score OSCAR (HLA-A*02 peptides): ++++; Presentation score GBC_CCC (HLA-A*02 peptides): ++++
10 (GIAGSLKTV; listed as Homo sapiens) [compound 10]	+		NSCLC, OSCAR, UBC, UEC, CRC, AML	SCLC, MEL, AML	++	Presentation score UEC (HLA-A*02 peptides): +
12 (GLLPLLHRA; listed as Homo sapiens) [compound 12]	++++		GB, NSCLC, UEC, RCC	MEL, RCC		Presentation score GB (HLA-A*02 peptides): ++++; Presentation score RCC (HLA-A*02 peptides): ++++; Presentation score UEC (HLA-A*02 peptides): ++++
13 (ALMAMLVYV; listed as Homo sapiens) [compound 13]	++++	++++	GC, NSCLC, OC, SCLC, BRCA, GBC_CCC	GBC_CCC, MEL, NHL, HNSCC		number of cancer tissues where the peptide was found to be presented (FIG. 1, A*02 positive samples, only samples with presentation shown): 17; Presentation score BRCA (HLA-A*02 peptides): ++++; Presentation score GBC_CCC (HLA-A*02 peptides): ++++; Presentation score GC (HLA-A*02 peptides): ++++; Presentation score SCLC (HLA-A*02 peptides): ++++
18 (ILLDLTDNRL; listed as Homo sapiens) [compound 18]	++++		NSCLC, OSCAR, UBC, BRCA, MEL, RCC, CRC	AML, HNSCC		Presentation score BRCA (HLA-A*02 peptides): ++++; Presentation score CRC (HLA-A*02 peptides): ++++; Presentation score OSCAR (HLA-A*02 peptides): ++++; Presentation score MEL (HLA-A*02 peptides): ++++; Presentation score RCC (HLA-A*02 peptides): ++++; Presentation score UBC (HLA-A*02 peptides): ++++
20 (GLSQITNQL; listed as Homo sapiens) [compound 20]			CLL, UBC, NHL	MEL, AML		Presentation score CLL (HLA-A*02 peptides): ++++; Presentation score NHL (HLA-A*02 peptides): ++++; Presentation score UBC (HLA-A*02 peptides): ++++
22 (FVDPNTQEKV; listed as Homo sapiens) [compound 22]		++++		HNSCC		Presentation score BRCA (HLA-A*02 peptides): ++++; Presentation score OSCAR (HLA-A*02 peptides): ++++; Presentation score GC (HLA-A*02 peptides): ++++; Presentation score HCC (HLA-A*02 peptides, hepatocellular carcinoma (N = 16) vs panel of normal tissues (N = 262)): ++++; Presentation score UBC (HLA-A*02 peptides): ++++
26 (ALQEELTEL; listed as Homo sapiens) [compound 26]			BRCA, GBC_CCC, MEL, AML, NHL	NSCLC, CRC, HNSCC	++++	Presentation score BRCA (HLA-A*02 peptides): ++++; Presentation score GBC_CCC (HLA-A*02 peptides): ++++; Presentation score MEL (HLA-A*02 peptides): ++++; Presentation score NHL (HLA-A*02 peptides): ++++
27 (RLMEENWNA; listed as Homo sapiens) [compound 27]	++++	++++	NSCLC, OSCAR, OC, UEC, CRC			Presentation score CRC (HLA-A*02 peptides): ++++; Presentation score OSCAR (HLA-A*02 peptides): ++++; Presentation score UEC (HLA-A*02 peptides): ++++
28 (SLPNGKPVSV; listed as Homo sapiens) [compound 28]	++++	++++	NSCLC, OC, UBC, NHL	OSCAR, SCLC, HNSCC		Presentation score NHL (HLA-A*02 peptides): ++++; Presentation score UBC (HLA-A*02 peptides): ++++
29 (YLLDPSITL; listed as Homo sapiens) [compound 29]	+++		NSCLC, CLL, BRCA, GBC_CCC, AML, NHL	HCC, SCLC, MEL, HNSCC	+++	Presentation score BRCA (HLA-A*02 peptides): +++; Presentation score CLL (HLA-A*02 peptides): +++; Presentation score GBC_CCC (HLA-A*02 peptides): +++; Presentation score NHL (HLA-A*02 peptides): +++
31 (TITETTVEV; listed as Homo sapiens) [compound 31]						Presentation score GB (HLA-A*02 peptides): ++++
35 (FLLPFSTVYL; listed as Homo sapiens) [compound 35]	+	+++	NSCLC, CLL, OC, AML, NHL	HNSCC	+	Presentation score CLL (HLA-A*02 peptides): ++
36 (SLADTNSLAVV; listed as Homo sapiens) [compound 36]			SCLC, MEL			Presentation score MEL (HLA-A*02 peptides): ++++; Presentation score SCLC (HLA-A*02 peptides): ++++
37 (ILAPFSVDL; listed as Homo sapiens) [compound 37]			AML		++++	
38 (FLGPRIIGL; listed as Homo sapiens) [compound 38]			CLL, AML, NHL	CRC	++++	Presentation score CLL (HLA-A*02 peptides): ++++; Presentation score NHL (HLA-A*02 peptides): ++++
42 (LLDSVSRL; listed as Homo sapiens) [compound 42]	++++		NSCLC, GBC_CCC, CRC			Presentation score CRC (HLA-A*02 peptides): ++++; Presentation score GBC_CCC (HLA-A*02 peptides): ++++
46 (SQFPLPLAV; listed as Homo sapiens) [compound 46]	++++		GC, NSCLC, OSCAR, UBC	MEL, HNSCC		Presentation score OSCAR (HLA-A*02 peptides): ++++; Presentation score GC (HLA-A*02 peptides): ++++; Presentation score UBC (HLA-A*02 peptides): ++++
48 (QVIEDSTGV; listed as Homo sapiens) [compound 48]	++++	++++	GC, NSCLC, OSCAR, OC			Presentation score OSCAR (HLA-A*02 peptides): ++++; Presentation score GC (HLA-A*02 peptides): ++++
